# Data taken from the supplement of paper PMC7666118.
# Amino acid sequences for entries named in this document (tags omitted). A change or cut given only in a name is not applied to a line headed by its entry.
# UniProt P62328: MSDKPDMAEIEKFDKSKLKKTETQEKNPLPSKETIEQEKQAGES
# UniProt Q9BRA2: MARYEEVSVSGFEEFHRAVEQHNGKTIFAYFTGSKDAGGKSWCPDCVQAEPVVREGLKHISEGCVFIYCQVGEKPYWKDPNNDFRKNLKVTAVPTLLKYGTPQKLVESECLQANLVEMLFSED
# UniProt Q9Y2L5: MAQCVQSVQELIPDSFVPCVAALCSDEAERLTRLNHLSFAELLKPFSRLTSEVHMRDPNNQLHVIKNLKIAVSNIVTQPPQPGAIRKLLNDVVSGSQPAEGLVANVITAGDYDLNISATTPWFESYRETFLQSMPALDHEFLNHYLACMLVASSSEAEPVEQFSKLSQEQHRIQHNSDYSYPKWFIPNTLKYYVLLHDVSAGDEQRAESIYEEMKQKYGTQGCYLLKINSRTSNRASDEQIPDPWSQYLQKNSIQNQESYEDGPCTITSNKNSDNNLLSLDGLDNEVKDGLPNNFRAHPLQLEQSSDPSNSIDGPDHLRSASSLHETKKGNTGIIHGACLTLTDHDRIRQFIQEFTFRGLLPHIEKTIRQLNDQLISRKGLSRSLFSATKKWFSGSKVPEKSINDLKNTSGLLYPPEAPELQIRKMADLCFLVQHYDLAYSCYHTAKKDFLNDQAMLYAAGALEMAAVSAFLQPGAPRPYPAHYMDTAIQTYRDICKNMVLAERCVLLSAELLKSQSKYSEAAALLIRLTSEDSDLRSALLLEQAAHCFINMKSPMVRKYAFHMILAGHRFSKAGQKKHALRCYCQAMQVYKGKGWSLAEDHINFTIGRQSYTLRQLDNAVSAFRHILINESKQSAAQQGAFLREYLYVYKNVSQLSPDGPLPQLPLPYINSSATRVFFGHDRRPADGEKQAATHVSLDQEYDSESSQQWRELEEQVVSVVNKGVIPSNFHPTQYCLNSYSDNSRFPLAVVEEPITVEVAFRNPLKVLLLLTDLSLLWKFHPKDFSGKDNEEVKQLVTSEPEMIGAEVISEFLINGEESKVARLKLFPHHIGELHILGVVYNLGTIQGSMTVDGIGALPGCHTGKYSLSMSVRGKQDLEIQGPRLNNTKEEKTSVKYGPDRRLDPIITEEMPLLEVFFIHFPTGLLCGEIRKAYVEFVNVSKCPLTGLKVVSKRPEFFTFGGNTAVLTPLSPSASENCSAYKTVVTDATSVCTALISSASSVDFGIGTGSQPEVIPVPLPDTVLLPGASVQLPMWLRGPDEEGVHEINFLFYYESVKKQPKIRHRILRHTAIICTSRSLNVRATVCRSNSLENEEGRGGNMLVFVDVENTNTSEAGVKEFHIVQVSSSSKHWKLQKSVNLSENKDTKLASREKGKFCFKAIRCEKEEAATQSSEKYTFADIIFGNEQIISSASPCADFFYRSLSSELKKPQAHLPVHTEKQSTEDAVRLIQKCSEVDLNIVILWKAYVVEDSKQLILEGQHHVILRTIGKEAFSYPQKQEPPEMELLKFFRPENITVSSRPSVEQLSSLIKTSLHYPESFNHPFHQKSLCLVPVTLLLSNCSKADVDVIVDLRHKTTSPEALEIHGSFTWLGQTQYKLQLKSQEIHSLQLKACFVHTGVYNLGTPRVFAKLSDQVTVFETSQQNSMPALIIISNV
# UniProt O14776: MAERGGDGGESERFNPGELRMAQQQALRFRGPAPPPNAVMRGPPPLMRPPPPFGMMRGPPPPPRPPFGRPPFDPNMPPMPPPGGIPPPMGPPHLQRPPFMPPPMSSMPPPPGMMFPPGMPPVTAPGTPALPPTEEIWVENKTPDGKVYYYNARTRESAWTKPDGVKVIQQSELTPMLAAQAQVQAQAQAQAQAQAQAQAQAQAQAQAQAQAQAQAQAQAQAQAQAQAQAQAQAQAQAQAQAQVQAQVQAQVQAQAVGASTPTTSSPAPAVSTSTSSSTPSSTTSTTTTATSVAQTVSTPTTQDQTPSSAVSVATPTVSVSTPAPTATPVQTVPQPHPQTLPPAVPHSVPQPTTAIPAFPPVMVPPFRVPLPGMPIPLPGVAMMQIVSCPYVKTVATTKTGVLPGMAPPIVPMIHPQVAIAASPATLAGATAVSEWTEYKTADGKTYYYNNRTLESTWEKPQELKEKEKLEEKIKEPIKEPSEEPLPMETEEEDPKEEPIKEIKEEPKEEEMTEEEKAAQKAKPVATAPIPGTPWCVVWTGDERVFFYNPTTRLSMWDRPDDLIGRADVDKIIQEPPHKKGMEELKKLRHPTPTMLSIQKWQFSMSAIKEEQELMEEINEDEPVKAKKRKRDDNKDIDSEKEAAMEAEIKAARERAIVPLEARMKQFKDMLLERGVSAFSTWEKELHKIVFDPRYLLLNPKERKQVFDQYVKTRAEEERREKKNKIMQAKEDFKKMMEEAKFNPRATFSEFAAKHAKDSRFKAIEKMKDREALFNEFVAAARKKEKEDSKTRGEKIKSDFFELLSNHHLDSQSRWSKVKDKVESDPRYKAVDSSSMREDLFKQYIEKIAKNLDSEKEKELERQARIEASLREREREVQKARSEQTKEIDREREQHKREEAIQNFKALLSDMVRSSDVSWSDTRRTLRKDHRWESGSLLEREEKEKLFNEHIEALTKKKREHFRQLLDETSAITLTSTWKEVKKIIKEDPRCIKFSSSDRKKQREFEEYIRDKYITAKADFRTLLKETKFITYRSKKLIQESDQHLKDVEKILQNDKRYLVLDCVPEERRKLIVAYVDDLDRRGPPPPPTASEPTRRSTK
# UniProt Q92734, whole entry: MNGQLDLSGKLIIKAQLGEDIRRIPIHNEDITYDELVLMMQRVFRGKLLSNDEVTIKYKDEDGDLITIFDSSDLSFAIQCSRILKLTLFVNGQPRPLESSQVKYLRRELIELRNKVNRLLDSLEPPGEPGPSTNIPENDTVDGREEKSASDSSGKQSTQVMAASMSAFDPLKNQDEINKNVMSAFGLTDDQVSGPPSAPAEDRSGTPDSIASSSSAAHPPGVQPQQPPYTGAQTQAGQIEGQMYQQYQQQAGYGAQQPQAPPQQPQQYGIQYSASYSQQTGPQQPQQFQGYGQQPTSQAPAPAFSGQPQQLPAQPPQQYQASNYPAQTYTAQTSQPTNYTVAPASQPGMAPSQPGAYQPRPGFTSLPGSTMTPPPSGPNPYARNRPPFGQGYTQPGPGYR
# UniProt O15417: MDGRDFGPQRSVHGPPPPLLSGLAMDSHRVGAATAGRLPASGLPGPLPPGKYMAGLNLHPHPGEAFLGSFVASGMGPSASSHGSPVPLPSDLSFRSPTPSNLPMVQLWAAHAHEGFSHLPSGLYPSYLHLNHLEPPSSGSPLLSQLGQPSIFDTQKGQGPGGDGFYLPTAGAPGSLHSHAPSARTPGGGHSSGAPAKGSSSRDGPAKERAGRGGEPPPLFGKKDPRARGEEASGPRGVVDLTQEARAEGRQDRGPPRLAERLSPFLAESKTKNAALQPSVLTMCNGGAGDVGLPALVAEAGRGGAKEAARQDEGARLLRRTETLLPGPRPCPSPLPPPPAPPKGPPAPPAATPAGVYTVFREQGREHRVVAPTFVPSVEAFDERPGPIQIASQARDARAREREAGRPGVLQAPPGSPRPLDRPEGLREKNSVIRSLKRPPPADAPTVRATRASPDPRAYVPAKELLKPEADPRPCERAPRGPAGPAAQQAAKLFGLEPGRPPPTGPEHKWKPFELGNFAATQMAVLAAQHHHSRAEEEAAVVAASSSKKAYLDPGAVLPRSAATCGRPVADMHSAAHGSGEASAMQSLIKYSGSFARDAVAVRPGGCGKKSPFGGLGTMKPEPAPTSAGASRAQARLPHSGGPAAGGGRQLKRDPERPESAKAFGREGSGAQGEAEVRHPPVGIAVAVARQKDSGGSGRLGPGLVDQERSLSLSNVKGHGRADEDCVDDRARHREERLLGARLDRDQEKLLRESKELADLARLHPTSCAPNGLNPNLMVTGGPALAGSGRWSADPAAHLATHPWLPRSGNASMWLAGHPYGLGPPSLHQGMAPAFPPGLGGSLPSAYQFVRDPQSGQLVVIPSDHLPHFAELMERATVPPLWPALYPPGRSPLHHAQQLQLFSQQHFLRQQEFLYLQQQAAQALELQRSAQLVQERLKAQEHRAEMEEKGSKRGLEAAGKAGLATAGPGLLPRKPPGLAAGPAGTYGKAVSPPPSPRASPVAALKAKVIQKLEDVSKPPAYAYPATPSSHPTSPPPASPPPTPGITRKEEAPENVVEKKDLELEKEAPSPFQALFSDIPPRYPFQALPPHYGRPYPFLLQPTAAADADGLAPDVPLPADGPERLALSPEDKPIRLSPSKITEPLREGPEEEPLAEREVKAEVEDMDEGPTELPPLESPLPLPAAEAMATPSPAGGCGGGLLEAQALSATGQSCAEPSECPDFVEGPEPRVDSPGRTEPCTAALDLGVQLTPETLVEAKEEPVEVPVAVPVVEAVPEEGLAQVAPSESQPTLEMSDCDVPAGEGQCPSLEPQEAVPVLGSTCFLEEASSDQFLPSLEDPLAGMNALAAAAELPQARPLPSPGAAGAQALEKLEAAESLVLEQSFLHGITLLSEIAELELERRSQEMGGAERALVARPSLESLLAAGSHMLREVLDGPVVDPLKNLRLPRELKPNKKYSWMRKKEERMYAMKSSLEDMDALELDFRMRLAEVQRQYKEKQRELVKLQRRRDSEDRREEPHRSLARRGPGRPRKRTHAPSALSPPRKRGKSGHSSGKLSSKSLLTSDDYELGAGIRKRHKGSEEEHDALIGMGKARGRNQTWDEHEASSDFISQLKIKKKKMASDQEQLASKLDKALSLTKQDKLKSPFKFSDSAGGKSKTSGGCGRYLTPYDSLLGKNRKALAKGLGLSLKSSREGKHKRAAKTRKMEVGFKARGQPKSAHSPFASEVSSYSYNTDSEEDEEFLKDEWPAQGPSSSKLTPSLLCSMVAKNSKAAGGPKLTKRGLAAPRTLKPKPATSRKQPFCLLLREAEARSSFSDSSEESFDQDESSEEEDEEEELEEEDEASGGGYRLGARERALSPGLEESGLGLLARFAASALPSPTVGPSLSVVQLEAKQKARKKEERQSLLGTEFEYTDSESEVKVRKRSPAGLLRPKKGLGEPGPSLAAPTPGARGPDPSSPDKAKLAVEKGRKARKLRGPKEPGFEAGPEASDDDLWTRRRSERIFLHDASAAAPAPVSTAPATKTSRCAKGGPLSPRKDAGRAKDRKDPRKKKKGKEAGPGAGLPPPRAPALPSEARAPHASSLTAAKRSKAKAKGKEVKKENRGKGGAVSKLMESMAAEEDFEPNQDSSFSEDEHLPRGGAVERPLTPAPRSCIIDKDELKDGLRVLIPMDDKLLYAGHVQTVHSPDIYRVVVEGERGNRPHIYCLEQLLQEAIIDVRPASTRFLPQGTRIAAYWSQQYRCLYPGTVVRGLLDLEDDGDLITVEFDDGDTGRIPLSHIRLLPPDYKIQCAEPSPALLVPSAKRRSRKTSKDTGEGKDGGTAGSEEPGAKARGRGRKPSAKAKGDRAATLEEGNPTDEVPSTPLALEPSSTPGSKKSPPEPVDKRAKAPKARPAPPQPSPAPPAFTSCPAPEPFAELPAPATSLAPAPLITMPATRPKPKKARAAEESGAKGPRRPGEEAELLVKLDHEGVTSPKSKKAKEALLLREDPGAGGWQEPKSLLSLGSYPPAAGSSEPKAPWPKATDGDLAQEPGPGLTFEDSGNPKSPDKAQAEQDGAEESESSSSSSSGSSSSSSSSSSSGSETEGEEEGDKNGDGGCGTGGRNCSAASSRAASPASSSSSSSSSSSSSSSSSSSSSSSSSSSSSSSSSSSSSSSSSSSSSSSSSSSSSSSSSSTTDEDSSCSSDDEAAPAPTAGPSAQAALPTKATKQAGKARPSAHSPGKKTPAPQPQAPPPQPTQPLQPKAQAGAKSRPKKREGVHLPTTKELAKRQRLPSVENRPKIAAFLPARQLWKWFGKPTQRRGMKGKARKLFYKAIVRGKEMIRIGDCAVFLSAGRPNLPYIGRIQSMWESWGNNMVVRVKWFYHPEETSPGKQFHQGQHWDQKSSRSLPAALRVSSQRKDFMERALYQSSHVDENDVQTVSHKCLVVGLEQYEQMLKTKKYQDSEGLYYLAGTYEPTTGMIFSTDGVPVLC
# UniProt Q969E8: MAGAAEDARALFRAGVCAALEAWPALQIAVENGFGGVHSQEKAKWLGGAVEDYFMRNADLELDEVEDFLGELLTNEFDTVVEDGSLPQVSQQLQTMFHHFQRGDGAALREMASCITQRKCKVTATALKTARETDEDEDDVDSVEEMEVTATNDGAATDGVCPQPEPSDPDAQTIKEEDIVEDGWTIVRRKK
# UniProt Q9P0N9: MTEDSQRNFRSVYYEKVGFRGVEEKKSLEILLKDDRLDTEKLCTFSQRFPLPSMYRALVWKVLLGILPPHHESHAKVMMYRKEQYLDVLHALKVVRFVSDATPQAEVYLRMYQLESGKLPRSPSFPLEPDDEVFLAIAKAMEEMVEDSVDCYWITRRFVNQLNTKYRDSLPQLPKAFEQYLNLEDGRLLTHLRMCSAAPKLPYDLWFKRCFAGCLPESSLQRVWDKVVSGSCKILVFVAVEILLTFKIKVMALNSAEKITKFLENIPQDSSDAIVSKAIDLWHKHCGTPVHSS
# The other results are listed elsewhere or left out.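 The calls were made as follows: active = dose-dependent thermal stabilisation significant by F-test of dose-response against flat model at 10% FDR; inactive = not significant.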
# Compound: Nc1nc2c(ncn2[C@@H]2O[C@H](COP(=O)(O)OP(=O)(O)OP(=O)(O)O)[C@@H](O)[C@H]2O)c(=O)[nH]1
# Assay: dose-dependent thermal stabilisation call (2D-TPP, DLPTP, 10% FDR) (binary (1 = stabilised)); higher = stabilised by the compound
# Settings: system: Jurkat gel-filtered lysate; concentration range 1-500 µM
row,Target,dose-dependent thermal stabilisation call
1,TRIOBP (UniProt Q9H2D6),inactive: 0
2,TUBA1C (UniProt Q9BQE3),active: 1
3,TRMT2A (UniProt Q8IZ69),inactive: 0
4,TRMT1 (UniProt Q9NXH9),active: 1
5,TRIM44 (UniProt Q96DX7),inactive: 0
6,TRAPPC1 (UniProt Q9Y5R8),inactive: 0
7,TPM3 (UniProt P06753),inactive: 0
8,TMSB4X (UniProt P62328),inactive: 0
9,TATDN1 (UniProt Q6P1N9),active: 1
10,TXNDC17 (UniProt Q9BRA2),inactive: 0
11,TP53RK (UniProt Q96S44),active: 1
12,TRIM21 (UniProt P19474),active: 1
13,TPRKB (UniProt Q9Y3C4),active: 1
14,TRAPPC8 (UniProt Q9Y2L5),inactive: 0
15,THADA (UniProt Q6YHU6),inactive: 0
16,TICRR (UniProt Q7Z2Z1),inactive: 0
17,TESC (UniProt Q96BS2),inactive: 0
18,TPI1 (UniProt P60174),inactive: 0

row,Target,dose-dependent thermal stabilisation call
1,TCERG1 (UniProt O14776),inactive: 0
2,TFG (UniProt Q92734),inactive: 0
3,TYMS (UniProt P04818),inactive: 0
4,TCF25 (UniProt Q9BQ70),inactive: 0
5,TWF2 (UniProt Q6IBS0),inactive: 0
6,TRNT1 (UniProt Q96Q11),active: 1
7,TAX1BP3 (UniProt O14907),inactive: 0
8,UBAP1 (UniProt Q9NZ09),inactive: 0
9,TBC1D24 (UniProt Q9ULP9),inactive: 0
10,TBC1D2B (UniProt Q9UPU7),active: 1
11,UBASH3A (UniProt P57075),inactive: 0
12,TUBB (UniProt P07437),inactive: 0
13,TFAM (UniProt Q00059),inactive: 0
14,TNRC18 (UniProt O15417),inactive: 0
15,TSR2 (UniProt Q969E8),inactive: 0
16,TBP (UniProt P20226),inactive: 0
17,TBC1D7 (UniProt Q9P0N9),inactive: 0
18,TPM4 (UniProt P67936),inactive: 0

# Two records picked at random from those above, as already listed:
row,Target,dose-dependent thermal stabilisation call
6,TRNT1 (UniProt Q96Q11),active: 1
17,TBC1D7 (UniProt Q9P0N9),inactive: 0
